PubChem BioAssay AID1671195 | Yale University | 2021
The whole screen tested about 22,000 reagents; this is a part drawn at random. Of all reagents, about 1,510 (6.9%) were called active. 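Active includes knockdowns raising or lowering LDL uptake; positive z-scores mean more uptake, negative mean less.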 Entries without a mark were called inactive.

Aim: 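Genes whose knockdown alters LDL uptake in liver cancer cells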 (primary screen)
System: human Huh7 hepatoma cells
Reagent: siRNA pool against human genes, 18 nM
Timing: about 2 to 2.5 days of knockdown, then 8 h LDL uptake
Challenge: DiI-labelled LDL at 30 µg/ml for 8 h, in lipoprotein-deficient serum medium
Detection: 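Fluorescent LDL signal imaged in cells, scaled to the plate median, robust z-score for each replicate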
Direction: robust z-score: higher = more LDL uptake after knockdown
Active means: 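a gene counts as active if at least two replicate z-scores exceed ±2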

| gene | PubChem SID | robust z-score, replicate 1 | robust z-score, replicate 2 | robust z-score, replicate 3 |
| --- | --- | --- | --- | --- |
| MCM6 | SID442895150 | -0.374 | 0.493 | -0.539 |
| LOC440558 (retired record) | SID442893191 | -0.0157 | 0.0332 | 0.218 |
| PSMG3 | SID442895711 | 0.0314 | -0.108 | -0.519 |
| LGI3 | SID442887516 | 0.836 | 1.17 | 0.685 |
| HMHB1 | SID442893141 | -0.0669 | -0.2 | 0.519 |
| KIF12 | SID442903060 | -1.21 | -1.02 | -1.39 |
| CHRNE | SID442903438 | -2.63 | -1.07 | -0.19 |
| LIPA | SID442897827 | -0.487 | -0.246 | -0.556 |
| CRTAC1 | SID442888311 | 0.396 | 0.805 | 1.03 |
| LOC441473 (retired record) | SID442904475 | -1.71 | -1.64 | -1.63 |
| PCDHB13 | SID442891568 | 0.292 | 0.583 | -0.0641 |
| TMEM109 | SID442883550 | 2.07 (active) | 2.51 | 3.52 |
| SERPINB5 | SID442901329 | -1.49 | 0.342 | -1.5 |
| CLCN1 | SID442895133 | 0.137 | -0.823 | 0.273 |
| CUX2 | SID442889479 | 0.743 | -0.105 | 1.02 |
| IGSF9 | SID442887970 | -0.222 | 0.0325 | 2.61 |
| POLE2 | SID442901450 | -0.453 | -1.26 | -0.998 |
| PATZ1 | SID442884409 | -2.05 (active) | -2.18 | -2 |
| SMAD6 | SID442902248 | -1.31 | -0.854 | -0.95 |
| LOC441181 (retired record) | SID442887472 | 1.08 | 1.14 | 0.492 |
| LOC388345 (retired record) | SID442885535 | 1.17 | 1.94 | 1.32 |
| CDK5P1 | SID442887808 | 0.685 | 0.674 | 1.15 |
| FPR2 | SID442898058 | -1.23 | 0.562 | -0.701 |
| PRKCSH | SID442894834 | 0.0269 | -0.23 | -0.111 |
| DISC1 | SID442886607 | 1.54 | 0.51 | 1.28 |
| MRPL53 | SID442901848 | -1.89 | -0.523 | -0.503 |
| OXCT2 | SID442896911 | -0.734 | 0.553 | -0.797 |
| TDG | SID442901633 | -1.22 | -0.642 | -0.933 |

Only “robust z-score, replicate 3”, for 3 of the entries above:
MRPL53 [SID442901848]	-0.503
OXCT2 [SID442896911]	-0.797
TDG [SID442901633]	-0.933
